Source: article PMC5465499

Protein sequences, listed by entry. Tags and fused reporters are not part of them. Lines headed by an entry give the natural chain unless they say otherwise; changes in a name come on top.
UniProt Q9EP80: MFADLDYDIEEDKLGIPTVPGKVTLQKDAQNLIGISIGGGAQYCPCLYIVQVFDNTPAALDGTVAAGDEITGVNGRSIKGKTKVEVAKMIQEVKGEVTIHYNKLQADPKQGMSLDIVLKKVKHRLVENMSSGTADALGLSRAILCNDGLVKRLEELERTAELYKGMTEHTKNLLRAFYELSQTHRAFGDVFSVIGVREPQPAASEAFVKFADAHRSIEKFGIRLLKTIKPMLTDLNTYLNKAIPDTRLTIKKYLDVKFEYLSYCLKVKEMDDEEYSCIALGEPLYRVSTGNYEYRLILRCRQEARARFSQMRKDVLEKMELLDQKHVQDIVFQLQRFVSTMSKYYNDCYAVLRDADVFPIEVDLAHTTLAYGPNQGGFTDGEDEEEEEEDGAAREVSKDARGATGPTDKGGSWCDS
UniProt Q9UKV8: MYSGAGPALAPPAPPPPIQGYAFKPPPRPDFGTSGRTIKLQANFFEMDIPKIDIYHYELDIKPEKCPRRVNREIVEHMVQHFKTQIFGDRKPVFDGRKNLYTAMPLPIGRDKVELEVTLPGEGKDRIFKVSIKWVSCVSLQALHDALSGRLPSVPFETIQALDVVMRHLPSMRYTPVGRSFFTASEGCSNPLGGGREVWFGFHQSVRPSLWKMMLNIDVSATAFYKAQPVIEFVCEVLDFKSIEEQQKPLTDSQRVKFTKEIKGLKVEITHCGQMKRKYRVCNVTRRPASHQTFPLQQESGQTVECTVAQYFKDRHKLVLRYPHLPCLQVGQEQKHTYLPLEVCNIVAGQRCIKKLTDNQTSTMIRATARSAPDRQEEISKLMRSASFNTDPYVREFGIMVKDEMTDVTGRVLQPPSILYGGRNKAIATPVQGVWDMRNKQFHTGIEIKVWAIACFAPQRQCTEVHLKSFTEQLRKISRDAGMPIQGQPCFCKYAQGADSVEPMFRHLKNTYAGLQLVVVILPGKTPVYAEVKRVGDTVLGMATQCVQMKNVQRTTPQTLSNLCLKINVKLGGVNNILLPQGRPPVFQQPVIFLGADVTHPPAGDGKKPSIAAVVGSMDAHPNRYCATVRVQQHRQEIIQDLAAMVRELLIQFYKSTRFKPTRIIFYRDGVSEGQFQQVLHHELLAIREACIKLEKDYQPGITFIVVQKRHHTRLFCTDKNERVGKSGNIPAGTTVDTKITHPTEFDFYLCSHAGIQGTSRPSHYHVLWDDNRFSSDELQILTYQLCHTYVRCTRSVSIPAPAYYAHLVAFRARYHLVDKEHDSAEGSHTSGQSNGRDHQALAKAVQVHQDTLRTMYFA

Target: FLAG-PICK1 D3N (UniProt Q9EP80)
Test: co-IP; anti-FLAG immunoprecipitation from transfected HEK293 cell extracts in IP buffer (0.5% Triton X-100, 150 mM NaCl, 20 mM HEPES pH 7.4), 4 °C; Western blot

binding: binds
Substance: Myc-Ago2 (from UniProt Q9UKV8 1-859)

No constants are given. Whether binding was seen depends on the method and setting. In cells and extracts the contact can be indirect. Binding can be weak; no strength is given.
